Measured values: PubChem BioAssay
The list shows a part of the results. Results with a measured potency or affinity are listed apart. The source made no clear call on entries shown without one.

Columns and labels:
[1] = Polyglutamine toxicity reduction dose response, whole organism Drosophila SCA1 model (AID 1595); details: at 1 µM, stronger effect = higher value
[2] = PubChem AID 1597; details: Drosophila SCA1 polyglutamine model, at 1 µM, stronger effect = higher value

| Compound | suppression of toxicity [1] | suppression of toxicity [2] |
| --- | --- | --- |
| CC1(C)O[C@@H]2CC3C4CCC5=CC(=O)CCC5(C)C4(F)C(O)CC3(C)[C@]2(C(=O)CCl)O1 (some centres not stated) | 0 | 2.85 |
| CNC[C@H](O)c1cccc(O)c1 | 2.86 | 11.4 |
| O=C(CCCN1CC=C(n2c(=O)[nH]c3ccccc32)CC1)c1ccc(F)cc1 | 8.57 | 11.4 |
| NCCNC(=O)c1ccc(Cl)cc1 | 0 | 0.715 |
| NCC1CCC(N)C(OC2C(N)CC(N)C(OC3OC(CO)C(O)C(N)C3O)C2O)O1 (configuration not stated) | 0 | 1.43 |
| CC1(C)C2CC[C@]3(C)C(C(=O)C=C4[C@H]5C[C@@](C)(C(=O)O)CC[C@]5(C)CC[C@]43C)[C@@]2(C)CC[C@@H]1O (some centres not stated) | 7.14 | 9.29 |
